Publication PMC3695512
Construct, isoform or probe ends are uncertain for at least one entry. Weaker means in comparison with the reference protein, sequence or condition of that experiment.

Amino acid sequences for entries named in this document (tags omitted).
UniProt O07897, entry or part of it R444A: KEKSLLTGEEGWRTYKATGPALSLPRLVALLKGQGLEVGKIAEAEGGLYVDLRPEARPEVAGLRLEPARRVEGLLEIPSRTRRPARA
UniProt O07897, entry or part of it Y472A: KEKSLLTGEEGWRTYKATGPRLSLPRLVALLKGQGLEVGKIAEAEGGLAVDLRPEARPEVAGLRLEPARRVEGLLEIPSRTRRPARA

What was measured:
[1] = molecular target: Hera_RBD R444A (Thermus thermophilus) (UniProt O07897); test: fluorescence anisotropy; details: 5 mM Mg2+; Anisotropy: 50 mM Tris/HCl pH 7.5, 150 mM NaCl, 5 mM MgCl2 (Fig 2), 25 C, 50 nM RNA; recombinant protein; label: 5'-fluorescein
[2] = molecular target: Hera_RBD Y472A (Thermus thermophilus) (UniProt O07897); test: fluorescence anisotropy; details: 5 mM Mg2+; Anisotropy: 50 mM Tris/HCl pH 7.5, 150 mM NaCl, 5 mM MgCl2 (Fig 2), 25 C, 50 nM RNA; recombinant protein; label: 5'-fluorescein

GCAGGUCCCAAGGGUUGGGCUGUUCGCCCAUU [32mer]
binding result [1]: binds more weakly
binding result [2]: binds more weakly
